According to the supplement of paper PMC5355238:
Structures can show the parent of a compound that is named as a salt. This is one part of the list. Most entries show no effect beyond the scatter of the controls.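 Using flow cytometry, the assay measures the median γH2AX antibody signal in S-phase Reh cells (a human leukemia line). Each score is the number of standard deviations from the median difference of paired plate sets. Candidate hits scored above 2.5; compounds scoring below -2 lowered MK1775-induced damage.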

test system: Reh; test: Z' of S-phase gammaH2AX difference (drug + MK1775 minus drug alone) (Z-score); higher = stronger synergistic S-phase DNA damage with MK1775; details: MK1775 concentration 400 nM; first compound 10 µM; 4 h

| Structure (SMILES) | Z' of S-phase gammaH2AX difference (Z-score) |
| --- | --- |
| COc1ccc2[nH]c3c(c2c1)CCNC3 [6-Methoxy-1,2,3,4-tetrahydro-9H-pyrido[3,4b] indole] + C=CCn1c(=O)c2cnc(Nc3ccc(N4CCN(C)CC4)cc3)nc2n1-c1cccc(C(C)(C)O)n1 [MK1775] | inactive: -0.424 |
| CN1[C@@H]2C[C@@H](OC(=O)[C@H](CO)c3ccccc3)C[C@H]1[C@@H]1O[C@@H]12 [(-)-Scopolamine hydrobromide] + C=CCn1c(=O)c2cnc(Nc3ccc(N4CCN(C)CC4)cc3)nc2n1-c1cccc(C(C)(C)O)n1 [MK1775] | inactive: 0.39 |
| COc1cc(CC(C)N)c(OC)cc1I (stereo not drawn) [(?)-DOI hydrochloride] + C=CCn1c(=O)c2cnc(Nc3ccc(N4CCN(C)CC4)cc3)nc2n1-c1cccc(C(C)(C)O)n1 [MK1775] | inactive: 0.989 |
| O=C(O)[C@@H]1[C@H](C(=O)O)[C@H]2CC[C@@H]1O2 [Endothall] + C=CCn1c(=O)c2cnc(Nc3ccc(N4CCN(C)CC4)cc3)nc2n1-c1cccc(C(C)(C)O)n1 [MK1775] | inactive: 0.26 |
| NNCc1cccc(O)c1 [3-Hydroxybenzylhydrazine dihydrochloride] + C=CCn1c(=O)c2cnc(Nc3ccc(N4CCN(C)CC4)cc3)nc2n1-c1cccc(C(C)(C)O)n1 [MK1775] | inactive: -1.29 |
| CCCN(CCC)[C@@H]1CCc2c(F)ccc(O)c2C1 [R(+)-UH-301 hydrochloride] + C=CCn1c(=O)c2cnc(Nc3ccc(N4CCN(C)CC4)cc3)nc2n1-c1cccc(C(C)(C)O)n1 [MK1775] | inactive: 0.147 |
| N[C@@H]1C[C@H]1c1ccccc1 [Tranylcypromine hydrochloride] + C=CCn1c(=O)c2cnc(Nc3ccc(N4CCN(C)CC4)cc3)nc2n1-c1cccc(C(C)(C)O)n1 [MK1775] | inactive: -0.432 |
| CN1CCc2cc(O)cc3c2[C@H]1Cc1ccc(O)c(O)c1-3 [R(-)-2,10,11-Trihydroxyaporphine hybrobromide] + C=CCn1c(=O)c2cnc(Nc3ccc(N4CCN(C)CC4)cc3)nc2n1-c1cccc(C(C)(C)O)n1 [MK1775] | inactive: -0.308 |
| NC(CP(=O)(O)O)C(=O)O (stereo not drawn) [(?)-2-Amino-3-phosphonopropionic acid] + C=CCn1c(=O)c2cnc(Nc3ccc(N4CCN(C)CC4)cc3)nc2n1-c1cccc(C(C)(C)O)n1 [MK1775] | inactive: -0.474 |
| O=C1CC[C@@]2(O)[C@H]3Cc4ccc(O)c5c4[C@@]2(CCN3CC2CC2)[C@H]1O5 [Naltrexone hydrochloride] + C=CCn1c(=O)c2cnc(Nc3ccc(N4CCN(C)CC4)cc3)nc2n1-c1cccc(C(C)(C)O)n1 [MK1775] | inactive: -0.0146 |
| NCC(CC(=O)O)c1ccc(Cl)cc1 (stereo not drawn) [(?)-Baclofen] + C=CCn1c(=O)c2cnc(Nc3ccc(N4CCN(C)CC4)cc3)nc2n1-c1cccc(C(C)(C)O)n1 [MK1775] | inactive: 0.454 |
| CN1CC[C@@]2(C)c3cc(O)ccc3N(C)C12 (single isomer, unassigned; (-)) [(-)-Eseroline fumarate] + C=CCn1c(=O)c2cnc(Nc3ccc(N4CCN(C)CC4)cc3)nc2n1-c1cccc(C(C)(C)O)n1 [MK1775] | inactive: -0.401 |
| CC(C)[C@]12O[C@H]1[C@@H]1O[C@]13[C@]1(O[C@H]1C[C@H]1C4=C(CC[C@@]13C)C(=O)OC4)[C@@H]2O [Triptolide] + C=CCn1c(=O)c2cnc(Nc3ccc(N4CCN(C)CC4)cc3)nc2n1-c1cccc(C(C)(C)O)n1 [MK1775] | inactive: -0.83 |
| CC(=O)[C@H]1CC[C@H]2[C@@H]3CC[C@H]4C[C@H](O)CC[C@]4(C)[C@H]3CC[C@]12C [5alpha-Pregnan-3alpha-ol-20-one] + C=CCn1c(=O)c2cnc(Nc3ccc(N4CCN(C)CC4)cc3)nc2n1-c1cccc(C(C)(C)O)n1 [MK1775] | inactive: 1.15 |
| CCN1C[C@]2(C)CC[C@H](O)[C@]34C1[C@@H](C[C@H]23)[C@@]1(O)C[C@H](OC)[C@H]2C[C@@H]4[C@@H]1[C@H]2O [Karakoline] + C=CCn1c(=O)c2cnc(Nc3ccc(N4CCN(C)CC4)cc3)nc2n1-c1cccc(C(C)(C)O)n1 [MK1775] | inactive: 0.274 |
| CCCN1CCC[C@@H](c2cccc(C#N)c2)C1 [S(-)-DS 121 hydrochloride] + C=CCn1c(=O)c2cnc(Nc3ccc(N4CCN(C)CC4)cc3)nc2n1-c1cccc(C(C)(C)O)n1 [MK1775] | inactive: -0.0704 |
| CC(NC(C)(C)C)C(=O)c1cccc(Cl)c1 (stereo not drawn) [Bupropion hydrochloride] + C=CCn1c(=O)c2cnc(Nc3ccc(N4CCN(C)CC4)cc3)nc2n1-c1cccc(C(C)(C)O)n1 [MK1775] | inactive: 0.184 |

| Structure (SMILES) | Z' of S-phase gammaH2AX difference (Z-score) |
| --- | --- |
| Oc1ccc2c3c1O[C@H]1c4[nH]c5ccccc5c4C[C@@]4(O)[C@@H](C2)N(CC2CC2)CC[C@]314 [Naltrindole hydrochloride] + C=CCn1c(=O)c2cnc(Nc3ccc(N4CCN(C)CC4)cc3)nc2n1-c1cccc(C(C)(C)O)n1 [MK1775] | inactive: -0.461 |
| CN1[C@@H]2CC[C@H]1C[C@@H](OC(=O)c1cc(Cl)cc(Cl)c1)C2 [3-Tropanyl-3,5-dichlorobenzoate] + C=CCn1c(=O)c2cnc(Nc3ccc(N4CCN(C)CC4)cc3)nc2n1-c1cccc(C(C)(C)O)n1 [MK1775] | inactive: -0.405 |
| CC(C)(C)c1cc(C=C(C#N)C#N)cc(C(C)(C)C)c1O [Tyrphostin A9] + C=CCn1c(=O)c2cnc(Nc3ccc(N4CCN(C)CC4)cc3)nc2n1-c1cccc(C(C)(C)O)n1 [MK1775] | inactive: -1.19 |
| O=C(O)c1nn(Cc2ccc(Cl)cc2Cl)c2ccccc12 [Lonidamine] + C=CCn1c(=O)c2cnc(Nc3ccc(N4CCN(C)CC4)cc3)nc2n1-c1cccc(C(C)(C)O)n1 [MK1775] | inactive: -0.584 |
| O=[N+]([O-])c1ccc(O[C@@H]2O[C@H](CO)[C@@H](O)[C@H](O)[C@H]2F)c([N+](=O)[O-])c1 [2,4-Dinitrophenyl 2-fluoro-2-deoxy-beta-D-glucopyranoside] + C=CCn1c(=O)c2cnc(Nc3ccc(N4CCN(C)CC4)cc3)nc2n1-c1cccc(C(C)(C)O)n1 [MK1775] | inactive: -0.221 |
| CC[C@@H](CO)NC(=O)[C@@H]1C=C2c3cccc4[nH]cc(c34)C[C@H]2N(C)C1 [Methylergonovine maleate] + C=CCn1c(=O)c2cnc(Nc3ccc(N4CCN(C)CC4)cc3)nc2n1-c1cccc(C(C)(C)O)n1 [MK1775] | inactive: -0.427 |
| CCC1(C2=NCCN2)Cc2ccccc2O1 (stereo not drawn) [Efaroxan hydrochloride] + C=CCn1c(=O)c2cnc(Nc3ccc(N4CCN(C)CC4)cc3)nc2n1-c1cccc(C(C)(C)O)n1 [MK1775] | inactive: -0.318 |
| CCOC(=O)c1ncn2c1[C@@H]1CCCN1C(=O)c1cc(OC)ccc1-2 + C=CCn1c(=O)c2cnc(Nc3ccc(N4CCN(C)CC4)cc3)nc2n1-c1cccc(C(C)(C)O)n1 [MK1775] | inactive: 0 |
| NC(N)=Nc1ccc2[nH]c3c(c2c1)C[C@@]1(O)[C@H]2Cc4ccc(O)c5c4[C@@]1(CCN2CC1CC1)[C@H]3O5 [Guanidinyl-naltrindole di-trifluoroacetate] + C=CCn1c(=O)c2cnc(Nc3ccc(N4CCN(C)CC4)cc3)nc2n1-c1cccc(C(C)(C)O)n1 [MK1775] | inactive: -0.284 |
| C[N+]1(C)CCc2cc3c(cc2[C@H]1[C@@H]1OC(=O)c2c1ccc1c2OCO1)OCO3 [(-)-Bicuculline methbromide, 1(S), 9(R)] + C=CCn1c(=O)c2cnc(Nc3ccc(N4CCN(C)CC4)cc3)nc2n1-c1cccc(C(C)(C)O)n1 [MK1775] | inactive: 0.578 |
| COc1ccc2c(c1O)-c1cccc3c1[C@@H](C2)N(C)CC3 [R(-)-Apocodeine hydrochloride] + C=CCn1c(=O)c2cnc(Nc3ccc(N4CCN(C)CC4)cc3)nc2n1-c1cccc(C(C)(C)O)n1 [MK1775] | inactive: 0.367 |
| C[N+]1(C)[C@@H]2CC(OC(=O)[C@H](CO)c3ccccc3)C[C@H]1[C@@H]1O[C@@H]12 (single isomer, unassigned; (-)) [(-)-Scopolamine methyl nitrate] + C=CCn1c(=O)c2cnc(Nc3ccc(N4CCN(C)CC4)cc3)nc2n1-c1cccc(C(C)(C)O)n1 [MK1775] | inactive: 0.393 |
| NC(CCP(=O)(O)O)C(=O)O (stereo not drawn) [(?)-2-Amino-4-phosphonobutyric acid] + C=CCn1c(=O)c2cnc(Nc3ccc(N4CCN(C)CC4)cc3)nc2n1-c1cccc(C(C)(C)O)n1 [MK1775] | inactive: -0.317 |
| NC(Cc1cc(O)c(O)cc1O)C(=O)O (racemic) [6-Hydroxy-DL-DOPA] + C=CCn1c(=O)c2cnc(Nc3ccc(N4CCN(C)CC4)cc3)nc2n1-c1cccc(C(C)(C)O)n1 [MK1775] | inactive: -0.785 |
| COc1cc(C(O)CN)ccc1O (stereo not drawn) [(?)-Normetanephrine hydrochloride] + C=CCn1c(=O)c2cnc(Nc3ccc(N4CCN(C)CC4)cc3)nc2n1-c1cccc(C(C)(C)O)n1 [MK1775] | inactive: 0.771 |
| O=c1[nH]oc2c1CCNC2 [THIP hydrochloride] + C=CCn1c(=O)c2cnc(Nc3ccc(N4CCN(C)CC4)cc3)nc2n1-c1cccc(C(C)(C)O)n1 [MK1775] | inactive: -0.341 |

Part of the list above, bar-delimited.
Structure (SMILES) | Z' of S-phase gammaH2AX difference (Z-score)
NC(CP(=O)(O)O)C(=O)O (stereo not drawn) [(?)-2-Amino-3-phosphonopropionic acid] + C=CCn1c(=O)c2cnc(Nc3ccc(N4CCN(C)CC4)cc3)nc2n1-c1cccc(C(C)(C)O)n1 [MK1775] | inactive: -0.474
O=C1CC[C@@]2(O)[C@H]3Cc4ccc(O)c5c4[C@@]2(CCN3CC2CC2)[C@H]1O5 [Naltrexone hydrochloride] + C=CCn1c(=O)c2cnc(Nc3ccc(N4CCN(C)CC4)cc3)nc2n1-c1cccc(C(C)(C)O)n1 [MK1775] | inactive: -0.0146
NCC(CC(=O)O)c1ccc(Cl)cc1 (stereo not drawn) [(?)-Baclofen] + C=CCn1c(=O)c2cnc(Nc3ccc(N4CCN(C)CC4)cc3)nc2n1-c1cccc(C(C)(C)O)n1 [MK1775] | inactive: 0.454
